This assay deals with Candida albicans. Kind of assay: Antimicrobial activity against Candida albicans. In kind it is functional. The essentials: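 Broth microdilution in 96-well plates. Inoculum was a 24 h Candida albicans culture diluted in Sabouraud dextrose broth. Incubation was at 30 or 37 °C. MIC was taken as the lowest concentration giving at least 80% growth inhibition.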

In ChEMBL document CHEMBL1141852, “Two auronols from Pseudolarix amabilis” (1999) one finds MIC data, which are given here for one compound.

In brackets after ≈: the same amount, converted by molar mass.

Usually MIC stands for the least concentration at which growth counts as inhibited. Read a low MIC as a more susceptible organism.

`C[C@@H]1[C@H](O)[C@@H](C)/C=C/C=C/C=C/C=C/C=C/C=C/C=C/[C@H](O[C@@H]2O[C@H](C)[C@@H](O)[C@H](N)[C@@H]2O)C[C@@H]2O[C@](O)(C[C@@H](O)C[C@@H](O)[C@H](O)CC[C@@H](O)C[C@@H](O)CC(=O)O[C@H]1C)C[C@H](O)[C@H]2C(=O)O` [AMPHOTERICIN B]: the minimum inhibitory concentration (MIC) came out at 0.2 µg/mL (≈ 0.216 µM).
